Results taken from publication PMC11771213 (International Journal of Molecular Sciences, 2025).

Test: peptide made by a vendor
Settings: whole synthesis

## TPVVVPPFL
  outcome: proved to be resistant to both synthetic purification and production

No end group written: not given here.
